In US20220118104A1 (IntoCell, Inc., priority 2019, published 2022) one finds conjugation yield data, which are given here for four substances.

The series is described as follows: peptide synthesis. The settings on record: conjugation step.

Turning to Int-T1-a, the conjugation yield amounted to 72%.

In the case of Int-T5-1, the conjugation yield is on record as 29%.

In turn, Int-T5-2 returned a conjugation yield of 38%.

Int-T6-1 had a conjugation yield of 25%.
